From the supplement of paper PMC10849652 come the findings set out here.

Amino acid sequences for entries named in this document (tags omitted). A change or cut given only in a name is not applied to a line headed by its entry.
UniProt Q9NTW7: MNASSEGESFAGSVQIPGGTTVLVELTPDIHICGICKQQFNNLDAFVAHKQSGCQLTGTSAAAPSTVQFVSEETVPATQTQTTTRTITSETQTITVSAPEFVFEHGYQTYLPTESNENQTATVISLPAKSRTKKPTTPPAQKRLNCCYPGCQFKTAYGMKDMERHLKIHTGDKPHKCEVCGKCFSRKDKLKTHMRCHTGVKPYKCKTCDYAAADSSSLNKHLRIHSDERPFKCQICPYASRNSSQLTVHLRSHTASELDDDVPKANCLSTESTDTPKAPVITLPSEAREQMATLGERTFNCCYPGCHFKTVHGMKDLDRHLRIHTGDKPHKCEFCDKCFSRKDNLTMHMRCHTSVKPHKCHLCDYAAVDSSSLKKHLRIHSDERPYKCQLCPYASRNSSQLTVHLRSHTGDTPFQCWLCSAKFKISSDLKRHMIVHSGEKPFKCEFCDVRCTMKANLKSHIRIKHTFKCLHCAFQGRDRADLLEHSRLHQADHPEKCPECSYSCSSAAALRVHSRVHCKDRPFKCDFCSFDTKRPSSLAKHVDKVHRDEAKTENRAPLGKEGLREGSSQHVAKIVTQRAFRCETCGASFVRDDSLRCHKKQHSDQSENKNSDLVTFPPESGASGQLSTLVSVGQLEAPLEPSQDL
UniProt Q9Y548: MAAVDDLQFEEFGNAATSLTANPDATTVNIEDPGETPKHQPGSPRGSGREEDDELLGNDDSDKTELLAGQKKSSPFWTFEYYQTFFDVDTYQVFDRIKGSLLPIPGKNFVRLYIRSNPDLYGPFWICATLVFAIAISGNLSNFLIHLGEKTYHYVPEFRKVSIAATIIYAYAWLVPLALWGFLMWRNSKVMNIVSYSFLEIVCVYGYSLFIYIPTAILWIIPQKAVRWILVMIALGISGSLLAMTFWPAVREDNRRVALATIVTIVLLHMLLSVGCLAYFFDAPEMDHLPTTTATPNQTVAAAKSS
UniProt Q9HBF4: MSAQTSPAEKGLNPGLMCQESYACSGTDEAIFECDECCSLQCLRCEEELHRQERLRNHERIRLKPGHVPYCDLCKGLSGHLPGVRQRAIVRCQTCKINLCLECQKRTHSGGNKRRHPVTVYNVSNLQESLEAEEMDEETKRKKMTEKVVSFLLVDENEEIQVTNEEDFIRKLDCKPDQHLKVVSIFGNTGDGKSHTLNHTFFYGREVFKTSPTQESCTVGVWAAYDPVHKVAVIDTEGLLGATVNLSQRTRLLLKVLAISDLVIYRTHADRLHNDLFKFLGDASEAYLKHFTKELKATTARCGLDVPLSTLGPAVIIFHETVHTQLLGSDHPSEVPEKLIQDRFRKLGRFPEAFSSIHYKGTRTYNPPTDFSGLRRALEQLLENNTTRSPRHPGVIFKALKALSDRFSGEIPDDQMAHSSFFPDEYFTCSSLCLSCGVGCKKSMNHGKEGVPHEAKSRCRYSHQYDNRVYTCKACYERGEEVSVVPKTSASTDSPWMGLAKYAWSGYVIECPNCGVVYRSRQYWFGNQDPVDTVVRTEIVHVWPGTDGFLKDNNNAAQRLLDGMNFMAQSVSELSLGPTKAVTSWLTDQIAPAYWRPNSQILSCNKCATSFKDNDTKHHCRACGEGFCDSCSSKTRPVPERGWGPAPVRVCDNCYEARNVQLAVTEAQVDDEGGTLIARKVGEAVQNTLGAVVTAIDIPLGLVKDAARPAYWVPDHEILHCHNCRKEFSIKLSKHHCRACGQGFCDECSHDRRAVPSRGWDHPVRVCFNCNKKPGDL
UniProt Q8TBK6: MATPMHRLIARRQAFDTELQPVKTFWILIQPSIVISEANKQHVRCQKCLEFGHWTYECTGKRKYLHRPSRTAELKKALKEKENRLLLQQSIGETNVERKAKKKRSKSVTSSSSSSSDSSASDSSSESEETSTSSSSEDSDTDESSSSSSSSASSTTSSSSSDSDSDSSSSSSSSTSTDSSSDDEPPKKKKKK
UniProt Q9Y2K1: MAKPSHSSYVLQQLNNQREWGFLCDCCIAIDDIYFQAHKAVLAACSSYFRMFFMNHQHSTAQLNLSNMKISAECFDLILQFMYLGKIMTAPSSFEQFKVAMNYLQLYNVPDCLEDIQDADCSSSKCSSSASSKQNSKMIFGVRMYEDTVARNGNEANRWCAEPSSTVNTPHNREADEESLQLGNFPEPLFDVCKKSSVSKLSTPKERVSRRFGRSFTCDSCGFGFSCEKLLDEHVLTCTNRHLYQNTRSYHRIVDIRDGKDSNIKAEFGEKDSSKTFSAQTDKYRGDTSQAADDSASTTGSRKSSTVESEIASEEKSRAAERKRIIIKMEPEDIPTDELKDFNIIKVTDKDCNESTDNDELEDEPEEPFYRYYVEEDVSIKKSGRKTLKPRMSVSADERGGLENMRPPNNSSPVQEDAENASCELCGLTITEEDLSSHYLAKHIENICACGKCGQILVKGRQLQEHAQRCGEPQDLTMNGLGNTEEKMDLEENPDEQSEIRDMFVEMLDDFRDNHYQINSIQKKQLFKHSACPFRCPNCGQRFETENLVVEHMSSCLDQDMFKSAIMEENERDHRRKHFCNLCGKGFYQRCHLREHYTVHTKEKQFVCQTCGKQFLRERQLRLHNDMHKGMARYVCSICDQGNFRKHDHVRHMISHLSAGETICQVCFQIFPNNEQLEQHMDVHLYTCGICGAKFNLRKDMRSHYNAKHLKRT
UniProt Q9C0D7: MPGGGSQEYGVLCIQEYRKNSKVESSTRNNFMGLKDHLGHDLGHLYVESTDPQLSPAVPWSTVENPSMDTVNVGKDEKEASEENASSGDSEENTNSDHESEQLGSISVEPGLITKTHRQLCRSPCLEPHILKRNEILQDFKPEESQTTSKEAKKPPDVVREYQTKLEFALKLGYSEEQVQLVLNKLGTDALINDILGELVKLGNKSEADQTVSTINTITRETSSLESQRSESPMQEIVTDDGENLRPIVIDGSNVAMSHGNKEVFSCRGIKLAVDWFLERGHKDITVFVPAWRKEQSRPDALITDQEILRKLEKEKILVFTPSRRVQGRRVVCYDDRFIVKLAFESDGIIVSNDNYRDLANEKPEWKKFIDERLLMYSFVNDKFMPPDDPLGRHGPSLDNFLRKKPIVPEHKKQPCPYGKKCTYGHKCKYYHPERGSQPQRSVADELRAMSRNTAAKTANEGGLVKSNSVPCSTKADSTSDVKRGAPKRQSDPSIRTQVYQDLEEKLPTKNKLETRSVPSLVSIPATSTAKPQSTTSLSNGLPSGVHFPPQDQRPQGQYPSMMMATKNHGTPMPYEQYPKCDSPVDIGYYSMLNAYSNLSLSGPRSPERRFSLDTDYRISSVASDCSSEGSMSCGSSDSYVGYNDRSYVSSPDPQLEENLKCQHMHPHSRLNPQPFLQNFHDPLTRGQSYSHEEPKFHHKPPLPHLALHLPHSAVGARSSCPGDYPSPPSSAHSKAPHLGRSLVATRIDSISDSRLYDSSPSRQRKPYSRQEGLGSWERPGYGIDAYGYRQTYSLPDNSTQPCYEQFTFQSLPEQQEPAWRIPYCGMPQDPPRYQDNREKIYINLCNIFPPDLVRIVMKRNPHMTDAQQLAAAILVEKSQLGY
UniProt O43543: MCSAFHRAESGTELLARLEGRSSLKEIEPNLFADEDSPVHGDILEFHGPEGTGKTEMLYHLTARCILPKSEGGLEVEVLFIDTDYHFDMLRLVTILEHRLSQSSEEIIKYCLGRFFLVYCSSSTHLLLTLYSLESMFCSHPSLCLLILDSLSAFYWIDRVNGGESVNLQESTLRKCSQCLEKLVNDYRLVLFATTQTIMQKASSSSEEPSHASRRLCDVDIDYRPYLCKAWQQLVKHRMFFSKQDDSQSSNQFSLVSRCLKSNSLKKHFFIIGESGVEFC
UniProt O43167: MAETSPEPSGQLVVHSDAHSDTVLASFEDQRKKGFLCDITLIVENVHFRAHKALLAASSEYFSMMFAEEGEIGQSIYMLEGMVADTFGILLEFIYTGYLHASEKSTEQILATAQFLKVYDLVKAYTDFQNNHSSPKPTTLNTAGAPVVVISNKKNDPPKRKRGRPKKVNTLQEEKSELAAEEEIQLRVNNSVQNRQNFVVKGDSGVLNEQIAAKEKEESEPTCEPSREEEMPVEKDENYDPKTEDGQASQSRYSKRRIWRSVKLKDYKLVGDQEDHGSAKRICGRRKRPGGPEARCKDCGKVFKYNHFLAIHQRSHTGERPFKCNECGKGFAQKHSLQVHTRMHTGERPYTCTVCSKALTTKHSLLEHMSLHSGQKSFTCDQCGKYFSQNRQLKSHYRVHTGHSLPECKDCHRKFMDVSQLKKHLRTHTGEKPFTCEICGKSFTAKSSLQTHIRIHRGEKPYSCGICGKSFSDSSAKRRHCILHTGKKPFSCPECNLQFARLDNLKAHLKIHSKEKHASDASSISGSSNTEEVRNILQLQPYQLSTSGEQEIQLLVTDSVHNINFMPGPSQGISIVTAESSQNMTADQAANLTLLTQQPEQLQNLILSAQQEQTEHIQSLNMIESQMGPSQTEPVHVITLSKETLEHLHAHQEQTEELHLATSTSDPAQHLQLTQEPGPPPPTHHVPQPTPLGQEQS
UniProt Q96K80: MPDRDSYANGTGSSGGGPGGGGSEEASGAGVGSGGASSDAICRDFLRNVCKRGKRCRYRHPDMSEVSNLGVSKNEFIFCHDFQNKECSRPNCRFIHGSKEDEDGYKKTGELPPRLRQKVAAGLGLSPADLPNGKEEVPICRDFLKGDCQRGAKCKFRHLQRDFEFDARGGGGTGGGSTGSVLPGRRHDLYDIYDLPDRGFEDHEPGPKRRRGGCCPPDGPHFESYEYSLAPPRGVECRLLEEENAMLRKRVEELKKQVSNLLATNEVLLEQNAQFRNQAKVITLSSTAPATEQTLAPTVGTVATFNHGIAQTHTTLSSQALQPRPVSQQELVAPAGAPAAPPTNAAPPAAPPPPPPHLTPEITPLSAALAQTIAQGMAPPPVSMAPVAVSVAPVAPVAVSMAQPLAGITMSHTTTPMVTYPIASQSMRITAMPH
UniProt Q9H5U6: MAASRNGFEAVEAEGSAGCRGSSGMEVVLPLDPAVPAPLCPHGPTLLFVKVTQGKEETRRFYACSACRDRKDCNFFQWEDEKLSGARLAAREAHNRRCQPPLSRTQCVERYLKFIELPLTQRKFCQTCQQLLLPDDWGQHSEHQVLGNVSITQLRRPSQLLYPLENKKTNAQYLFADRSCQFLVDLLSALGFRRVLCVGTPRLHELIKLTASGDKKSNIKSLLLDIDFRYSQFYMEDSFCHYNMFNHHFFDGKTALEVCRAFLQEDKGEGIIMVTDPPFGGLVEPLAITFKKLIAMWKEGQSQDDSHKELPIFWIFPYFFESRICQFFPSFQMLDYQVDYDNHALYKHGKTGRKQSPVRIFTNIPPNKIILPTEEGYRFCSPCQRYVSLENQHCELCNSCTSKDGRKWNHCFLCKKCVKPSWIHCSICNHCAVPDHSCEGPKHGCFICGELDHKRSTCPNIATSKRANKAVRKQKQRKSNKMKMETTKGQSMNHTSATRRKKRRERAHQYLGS
UniProt Q8IZN3: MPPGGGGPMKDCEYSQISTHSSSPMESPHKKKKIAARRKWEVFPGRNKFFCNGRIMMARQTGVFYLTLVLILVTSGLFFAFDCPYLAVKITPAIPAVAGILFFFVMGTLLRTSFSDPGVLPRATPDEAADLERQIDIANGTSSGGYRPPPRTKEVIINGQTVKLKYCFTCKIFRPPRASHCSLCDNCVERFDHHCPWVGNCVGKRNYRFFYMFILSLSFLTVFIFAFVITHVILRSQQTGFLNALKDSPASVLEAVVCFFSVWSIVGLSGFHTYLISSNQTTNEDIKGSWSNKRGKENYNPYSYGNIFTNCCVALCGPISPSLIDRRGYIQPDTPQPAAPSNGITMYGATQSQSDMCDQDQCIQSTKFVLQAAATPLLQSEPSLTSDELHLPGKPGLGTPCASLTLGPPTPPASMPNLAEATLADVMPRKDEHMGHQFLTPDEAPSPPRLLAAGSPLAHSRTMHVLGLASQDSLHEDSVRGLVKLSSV
UniProt Q8IUH5: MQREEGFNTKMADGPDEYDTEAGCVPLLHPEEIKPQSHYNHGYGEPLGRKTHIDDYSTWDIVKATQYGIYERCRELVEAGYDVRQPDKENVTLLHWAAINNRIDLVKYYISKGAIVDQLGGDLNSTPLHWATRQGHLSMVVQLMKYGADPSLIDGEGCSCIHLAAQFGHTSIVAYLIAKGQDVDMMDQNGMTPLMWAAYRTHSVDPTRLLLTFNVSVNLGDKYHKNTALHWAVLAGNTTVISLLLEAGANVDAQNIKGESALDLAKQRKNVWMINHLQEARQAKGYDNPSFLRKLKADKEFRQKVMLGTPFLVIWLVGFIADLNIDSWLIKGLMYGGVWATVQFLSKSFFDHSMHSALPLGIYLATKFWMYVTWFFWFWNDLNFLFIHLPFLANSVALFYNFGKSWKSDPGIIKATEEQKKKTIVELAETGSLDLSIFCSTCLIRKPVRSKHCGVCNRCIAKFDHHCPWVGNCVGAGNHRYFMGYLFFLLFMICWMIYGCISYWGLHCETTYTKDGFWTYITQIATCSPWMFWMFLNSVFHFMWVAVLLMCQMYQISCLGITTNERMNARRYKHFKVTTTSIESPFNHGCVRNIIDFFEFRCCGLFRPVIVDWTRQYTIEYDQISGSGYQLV

The other results are listed elsewhere or left out.

Compound in one experiment: C1=CC=C(C=C1)[C@H](COC2=CC3=C(C=C2)NC(=O)N3)NC(=O)C4=CC=CN(C4=O)CC5=CC(=C(C=C5)F)F
The experiment can be described thus: log2 fold change, soluble protein after heating vs DMSO (PISA); higher = thermal stabilisation; K562 lysate, 10 uM; active = over 0.2 and 3.5 SD of the protein, either way, in both replicates (recomputed). An outline of the steps:
(§1)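 Dounce homogenisation of K562 pellets in PBS pH 7.4 with 1 mM MgCl2 produced a crude extract, used at 1 mg/mL protein. Exposure to 10 μM compound lasted 30 min, and aliquots were then heated for 3 min across 48°C-58°C, pooled and brought to 0.5% NP-40 at 4°C. The supernatant after 21,000xg for 90 min was quantified by TMTpro 16plex LC-MS/MS with channel sums equalised. Duplicate values are given as log-two fold change in thermal stability relative to solvent controls.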
Turning to ZFP64 isoform 5 (UniProt Q9NTW7), the log2 fold change was inactive: -0.109.
The same measure, in the same setting: under ZFAND1 (UniProt Q8TCF1) stands inactive: 0.02; under ZBTB14 (UniProt O43829), inactive: 0.084.
Same read-out and setting: under YIPF1 (UniProt Q9Y548) stands inactive: 0.024; under ZFYVE1 (UniProt Q9HBF4), inactive: -0.224.
Turning to ZCCHC10 (UniProt Q8TBK6), the log2 fold change was inactive: -0.017.
As to ZBTB1 (UniProt Q9Y2K1), the log2 fold change was inactive: -0.125.
ZDHHC4 (UniProt Q9NPG8): the log2 fold change was inactive: 0.026.
For the target ZBTB34 (UniProt Q8NCN2), the log2 fold change is inactive: 0.173.
Regarding ZC3H12C isoform 2 (UniProt Q9C0D7), the log2 fold change is inactive: -0.126.
Take XRCC2 (UniProt O43543): the log2 fold change is inactive: -0.086.
For ZG16B (UniProt Q96DA0), the log2 fold change is inactive: -0.424.
Take ZBTB24 (UniProt O43167): the log2 fold change was inactive: 0.061.
On the same count and under the same terms, under ZC3H10 (UniProt Q96K80) stands inactive: 0.043.

Compound in a further experiment: CC1=C(SC2=C1C(=N[C@H](C3=NN=C(N32)C)CC(=O)N)C4=CC=C(C=C4)Cl)C
The description is as above. Put shortly:
as §1
In the case of ZFP64 isoform 5 (UniProt Q9NTW7), the log2 fold change was inactive: 0.127.
Turning to ZFAND1 (UniProt Q8TCF1), the log2 fold change is inactive: -0.109.
In the case of ZBTB14 (UniProt O43829), the log2 fold change is inactive: -0.106.
For YIPF1 (UniProt Q9Y548), the log2 fold change is inactive: -0.019.
Take ZFYVE1 (UniProt Q9HBF4): the log2 fold change was inactive: -0.011.
Consider ZCCHC10 (UniProt Q8TBK6), for which the log2 fold change was inactive: -0.188.
The same measure, in the same setting: for ZBTB1 (UniProt Q9Y2K1) the value was inactive: 0.159; for ZDHHC4 (UniProt Q9NPG8), inactive: -0.01; for ZBTB34 (UniProt Q8NCN2), inactive: -0.133.
In the case of ZC3H12C isoform 2 (UniProt Q9C0D7), the log2 fold change was inactive: 0.
On the same count and under the same terms, for XRCC2 (UniProt O43543) the value was inactive: -0.017; for ZG16B (UniProt Q96DA0), inactive: -0.206.
With ZBTB24 (UniProt O43167), the log2 fold change was inactive: 0.108.
With ZC3H10 (UniProt Q96K80), the log2 fold change is inactive: -0.081.

Compound in the next experiment: CC1=C2C(=CC=C1)N=C(N(C2=O)C3=CC=CC=C3C)CN4C=NC5=C(N=CN=C54)N
Described as above. An outline of the steps: as §1
Turning to ZFP92 (UniProt A6NM28), the log2 fold change was inactive: 0.105.
Still for that read-out and setting: under ZBTB43 (UniProt O43298) stands inactive: -0.022.
For ZBTB11 (UniProt O95625), the log2 fold change was inactive: -0.059.
Take ZCCHC4 (UniProt Q9H5U6): the log2 fold change was inactive: 0.153.
As to ZDHHC14 (UniProt Q8IZN3), the log2 fold change was inactive: 0.086.
For ZDHHC17 (UniProt Q8IUH5), the log2 fold change was inactive: 0.057.
On the same count and under the same terms, under ZBTB40 (UniProt Q9NUA8) stands inactive: -0.06; under ZBTB5 (UniProt O15062), inactive: -0.038.
Consider ZBED4 (UniProt O75132), for which the log2 fold change is inactive: -0.117.
For the target YBEY (UniProt P58557), the log2 fold change is inactive: 0.046.
Still for that read-out and setting: for ZBTB48 (UniProt P10074) the value was inactive: 0.059.

Compound in another experiment: Cc1sc2c(c1C)C(c1ccc(Cl)cc1)=N[C@@H](CC(=O)OC(C)(C)C)c1nnc(C)n1-2
The experiment is described as above. Put shortly:
as §1
Regarding ZBED6 (UniProt P86452), the log2 fold change is inactive: -0.114.
On to ZBTB43 (UniProt O43298), for which the log2 fold change is inactive: 0.073.
In the case of ZFAND1 (UniProt Q8TCF1), the log2 fold change was inactive: 0.057.
Turning to ZCCHC4 (UniProt Q9H5U6), the log2 fold change was inactive: 0.007.
As for ZFX isoform 3 (UniProt P17010), the log2 fold change is inactive: 0.03.
Take YY1AP1 isoform 9 (UniProt Q9H869): the log2 fold change was inactive: 0.109.
As for ZBTB14 (UniProt O43829), the log2 fold change is inactive: -0.027.
On the same count and under the same terms, under YIPF1 (UniProt Q9Y548) stands inactive: 0.06; under ZFYVE1 (UniProt Q9HBF4), inactive: 0.079; under ZDHHC14 (UniProt Q8IZN3), inactive: 0.
Consider ZC3H12A (UniProt Q5D1E8), for which the log2 fold change is inactive: 0.016.
The same measure, in the same setting: for ZCCHC10 (UniProt Q8TBK6) the value was inactive: -0.252.
For ZDHHC4 (UniProt Q9NPG8), the log2 fold change was inactive: 0.141.
In the case of ZBTB34 (UniProt Q8NCN2), the log2 fold change was inactive: 0.121.
For ZBTB39 (UniProt O15060), the log2 fold change is inactive: 0.118.
As for ZC3H12C isoform 2 (UniProt Q9C0D7), the log2 fold change was inactive: 0.417.
For the target XRCC2 (UniProt O43543), the log2 fold change was inactive: -0.075.
For ZCRB1 (UniProt Q8TBF4), the log2 fold change was inactive: -0.019.
Regarding ZDHHC17 (UniProt Q8IUH5), the log2 fold change was inactive: -0.181.
For the target ZBTB40 (UniProt Q9NUA8), the log2 fold change was inactive: -0.004.
Turning to ZBTB5 (UniProt O15062), the log2 fold change is inactive: -0.019.
Consider ZBTB24 (UniProt O43167), for which the log2 fold change is inactive: 0.01.
As for ZC3H10 (UniProt Q96K80), the log2 fold change was inactive: -0.017.
Turning to ZBED5 (UniProt Q49AG3), the log2 fold change is inactive: 0.168.
For YBEY (UniProt P58557), the log2 fold change is inactive: -0.016.
For ZBTB48 (UniProt P10074), the log2 fold change is inactive: -0.038.
Take ZCCHC7 (UniProt Q8N3Z6): the log2 fold change is inactive: -0.023.

Compound in the next experiment: c1ccc([C@@H]2C[C@H]2NC2CCNCC2)cc1
The experiment is described as above. Put shortly: as §1
For the target ZFP64 isoform 5 (UniProt Q9NTW7), the log2 fold change is inactive: -0.05.
On the same count and under the same terms, for ZDHHC9 (UniProt Q9Y397) the value was inactive: 0.024; for ZDHHC2 (UniProt Q9UIJ5), inactive: -0.084.
Still for that read-out and setting: for ZC3H3 (UniProt Q8IXZ2) the value was inactive: -0.2.
Turning to ZFAND1 (UniProt Q8TCF1), the log2 fold change was inactive: 0.279.
Turning to ZBTB11 (UniProt O95625), the log2 fold change was inactive: -0.123.
On to ZCCHC4 (UniProt Q9H5U6), for which the log2 fold change is inactive: 0.029.
Regarding YY1AP1 isoform 9 (UniProt Q9H869), the log2 fold change is inactive: 0.193.
Same read-out and setting: under ZBTB14 (UniProt O43829) stands inactive: 0.015.
Same read-out and setting: under YBX1 (UniProt C9J5V9) stands inactive: 0.129.
With ZFYVE1 (UniProt Q9HBF4), the log2 fold change was inactive: 0.232.
Same read-out and setting: for ZDHHC14 (UniProt Q8IZN3) the value was inactive: -0.104; for ZBTB1 (UniProt Q9Y2K1), inactive: -0.04; for ZDHHC4 (UniProt Q9NPG8), inactive: -0.116.
In the case of ZC3H12C isoform 2 (UniProt Q9C0D7), the log2 fold change was inactive: 0.077.
For the target XRCC2 (UniProt O43543), the log2 fold change was inactive: -0.045.
Still for that read-out and setting: for ZCRB1 (UniProt Q8TBF4) the value was inactive: 0.021; for ZDHHC17 (UniProt Q8IUH5), inactive: -0.578.
As for ZBTB40 (UniProt Q9NUA8), the log2 fold change is active: -0.432.
On to ZG16B (UniProt Q96DA0), for which the log2 fold change was inactive: -0.19.
Regarding ZBTB24 (UniProt O43167), the log2 fold change was inactive: -0.072.
On the same count and under the same terms, under ZDHHC8 isoform 3 (UniProt Q9ULC8) stands inactive: -0.131.
Still for that read-out and setting: under YIPF2 (UniProt Q9BWQ6) stands inactive: 0.01.
